{"source": "patent US20040023861A1", "about": "“Cysteinyl leukotriene receptor 2 (cysl t2)” (priority 2000, published 2004)", "target": "T1, CysLT1 (Homo sapiens, UniProt Q9Y271)", "T1 construct": "expressed in transfected cells; host or cells: CHO cells with stably integrated NFAT-luciferase reporter (CHONFAT)", "T1 sequence (Q9Y271 1-337)": "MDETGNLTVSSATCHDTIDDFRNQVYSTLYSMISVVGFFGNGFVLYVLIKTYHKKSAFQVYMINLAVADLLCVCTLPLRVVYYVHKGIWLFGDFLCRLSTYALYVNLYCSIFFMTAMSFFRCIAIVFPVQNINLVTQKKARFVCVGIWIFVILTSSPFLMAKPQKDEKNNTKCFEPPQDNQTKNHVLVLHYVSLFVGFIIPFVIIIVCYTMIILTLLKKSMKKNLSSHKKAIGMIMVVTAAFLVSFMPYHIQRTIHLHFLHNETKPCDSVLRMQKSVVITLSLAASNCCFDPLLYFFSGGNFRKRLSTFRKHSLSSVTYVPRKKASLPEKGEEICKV", "experiment": "Antagonist activity against 20 nM LTD4 (NFAT luciferase reporter gene assay and FLIPR assay) at CysLT1", "type": "cell-based", "settings": "concentration dependent inhibition of 20 nM LTD4; reporter gene and FLIPR assays", "note": "At least one compound was matched to its structure with a doubt left."}
{"smiles": "CC(C)(O)c1ccccc1CC[C@@H](SCC1(CC(=O)O)CC1)c1cccc(/C=C/c2ccc3ccc(Cl)cc3n2)c1", "note": "[Montelukast]", "values": [{"measurement": "antagonist activity at CysLT1", "result": "acted as antagonists"}]}
